Data as given in PubChem BioAssay AID1224830 (NIAID, 2016).

Assay: 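Regulators of TLR4 signalling towards TNF-alpha in macrophage-like cells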 (primary screen)
Cells: human THP-1 monocytic leukaemia cells, TNF dual-luciferase reporter clone, PMA-differentiated to macrophage-like cells
Reagents: siRNA pool against human genes, 50 nM
Time to read-out: LPS for 4 h, given about 3 days after siRNA transfection
Conditions: bacterial LPS (TLR4 ligand), 10 ng/ml
Read-out: 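Ratio of firefly to renilla light, scaled to the plate median and expressed as a robust z-score per replicate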
Scale: TNF reporter robust z-score: higher = stronger TNF reporter response to LPS
Hit rule: 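Each well counts as active if its z-score is over 2.8 or under -1.5; controls are left without a call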
The whole screen tested about 18,000 reagents; below is an unselected part. About 2,900 of all reagents (16%) were called active. 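Calls are made per well; low scores hint the gene aids the LPS response, high scores that it dampens it.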 Entries without a mark were called inactive. Repeated entries: four replicate wells of each siRNA pool. No sequences are given here.

SYDE1 (synapse defective Rho GTPase activating protein 1) [SID315460667] — TNF reporter robust z-score: -0.63
SYDE1 (synapse defective Rho GTPase activating protein 1) [SID315460667] — TNF reporter robust z-score: -0.49
SYDE1 (synapse defective Rho GTPase activating protein 1) [SID315460667] — TNF reporter robust z-score: -1.06
SYDE1 (synapse defective Rho GTPase activating protein 1) [SID315460667] — TNF reporter robust z-score: -0.07
GPHN (gephyrin) [SID315453939] — TNF reporter robust z-score: -0.96
GPHN (gephyrin) [SID315453939] — TNF reporter robust z-score: 0.49
GPHN (gephyrin) [SID315453939] — TNF reporter robust z-score: 2.28
GPHN (gephyrin) [SID315453939] — TNF reporter robust z-score: 1.76
HENMT1 (HEN methyltransferase 1) [SID315461204] — TNF reporter robust z-score: 0.6
HENMT1 (HEN methyltransferase 1) [SID315461204] — TNF reporter robust z-score: -0.12
HENMT1 (HEN methyltransferase 1) [SID315461204] — TNF reporter robust z-score: 0.73
HSPB2 (heat shock protein family B (small) member 2) [SID315449347] — TNF reporter robust z-score: -1.11
HSPB2 (heat shock protein family B (small) member 2) [SID315449347] — TNF reporter robust z-score: -0.9
HSPB2 (heat shock protein family B (small) member 2) [SID315449347] — TNF reporter robust z-score: -0.54
HSPB2 (heat shock protein family B (small) member 2) [SID315449347] — TNF reporter robust z-score: -0.33
MAN2C1 (mannosidase alpha class 2C member 1) [SID315449872] — TNF reporter robust z-score: -0.47
MAN2C1 (mannosidase alpha class 2C member 1) [SID315449872] — TNF reporter robust z-score: -0.82
MAN2C1 (mannosidase alpha class 2C member 1) [SID315449872] — TNF reporter robust z-score: -0.63
MAN2C1 (mannosidase alpha class 2C member 1) [SID315449872] — TNF reporter robust z-score: -0.7
LINC02910 (long intergenic non-protein coding RNA 2910) [SID315463809] — TNF reporter robust z-score: -1.79 (active)
LINC02910 (long intergenic non-protein coding RNA 2910) [SID315463809] — TNF reporter robust z-score: 0.07
LINC02910 (long intergenic non-protein coding RNA 2910) [SID315463809] — TNF reporter robust z-score: -0.05
LINC02910 (long intergenic non-protein coding RNA 2910) [SID315463809] — TNF reporter robust z-score: -0.51
ARHGAP9 (Rho GTPase activating protein 9) [SID315458896] — TNF reporter robust z-score: -0.69
ARHGAP9 (Rho GTPase activating protein 9) [SID315458896] — TNF reporter robust z-score: -0.65
ARHGAP9 (Rho GTPase activating protein 9) [SID315458896] — TNF reporter robust z-score: -0.72
ARHGAP9 (Rho GTPase activating protein 9) [SID315458896] — TNF reporter robust z-score: 1.12
PIP5K1A (phosphatidylinositol-4-phosphate 5-kinase type 1 alpha) [SID315452532] — TNF reporter robust z-score: 0.35
PIP5K1A (phosphatidylinositol-4-phosphate 5-kinase type 1 alpha) [SID315452532] — TNF reporter robust z-score: 1.18
PIP5K1A (phosphatidylinositol-4-phosphate 5-kinase type 1 alpha) [SID315452532] — TNF reporter robust z-score: 1.29
PIP5K1A (phosphatidylinositol-4-phosphate 5-kinase type 1 alpha) [SID315452532] — TNF reporter robust z-score: 0.11
H3C6 (H3 clustered histone 6) [SID315452504] — TNF reporter robust z-score: -0.13
H3C6 (H3 clustered histone 6) [SID315452504] — TNF reporter robust z-score: -0.43
H3C6 (H3 clustered histone 6) [SID315452504] — TNF reporter robust z-score: -0.64
H3C6 (H3 clustered histone 6) [SID315452504] — TNF reporter robust z-score: -1.36
NAA50 (N-alpha-acetyltransferase 50, NatE catalytic subunit) [SID315459706] — TNF reporter robust z-score: 0.16
NAA50 (N-alpha-acetyltransferase 50, NatE catalytic subunit) [SID315459706] — TNF reporter robust z-score: 2.86 (active)
NAA50 (N-alpha-acetyltransferase 50, NatE catalytic subunit) [SID315459706] — TNF reporter robust z-score: 3.32 (active)
NAA50 (N-alpha-acetyltransferase 50, NatE catalytic subunit) [SID315459706] — TNF reporter robust z-score: 2.42
LGI4 (leucine rich repeat LGI family member 4) [SID315462779] — TNF reporter robust z-score: 0.26
LGI4 (leucine rich repeat LGI family member 4) [SID315462779] — TNF reporter robust z-score: -0.96
LGI4 (leucine rich repeat LGI family member 4) [SID315462779] — TNF reporter robust z-score: -0.21
LGI4 (leucine rich repeat LGI family member 4) [SID315462779] — TNF reporter robust z-score: -0.52
FCRLB (Fc receptor like B) [SID315461776] — TNF reporter robust z-score: 0.78
FCRLB (Fc receptor like B) [SID315461776] — TNF reporter robust z-score: 1.08
FCRLB (Fc receptor like B) [SID315461776] — TNF reporter robust z-score: -0.01
FCRLB (Fc receptor like B) [SID315461776] — TNF reporter robust z-score: 1.55
KLHDC4 (kelch domain containing 4) [SID315457145] — TNF reporter robust z-score: -0.09
KLHDC4 (kelch domain containing 4) [SID315457145] — TNF reporter robust z-score: 0.72
KLHDC4 (kelch domain containing 4) [SID315457145] — TNF reporter robust z-score: 0.5
KLHDC4 (kelch domain containing 4) [SID315457145] — TNF reporter robust z-score: 0.99
C8orf44 (chromosome 8 putative open reading frame 44) [SID315458059] — TNF reporter robust z-score: -0.98
C8orf44 (chromosome 8 putative open reading frame 44) [SID315458059] — TNF reporter robust z-score: -1.91 (active)
C8orf44 (chromosome 8 putative open reading frame 44) [SID315458059] — TNF reporter robust z-score: -1.68 (active)
C8orf44 (chromosome 8 putative open reading frame 44) [SID315458059] — TNF reporter robust z-score: -0.62
KCNV1 [SID315455877] — TNF reporter robust z-score: -0.44
KCNV1 [SID315455877] — TNF reporter robust z-score: -0.9
KCNV1 [SID315455877] — TNF reporter robust z-score: -1.34
KCNV1 [SID315455877] — TNF reporter robust z-score: -0.82
FBXL13 (F-box and leucine rich repeat protein 13) [SID315463336] — TNF reporter robust z-score: -0.27
FBXL13 (F-box and leucine rich repeat protein 13) [SID315463336] — TNF reporter robust z-score: 1.52
FBXL13 (F-box and leucine rich repeat protein 13) [SID315463336] — TNF reporter robust z-score: 1.3
FBXL13 (F-box and leucine rich repeat protein 13) [SID315463336] — TNF reporter robust z-score: 4.74 (active)

A run of entries of the results above, for reference:
LINC02910 (long intergenic non-protein coding RNA 2910) [SID315463809] — TNF reporter robust z-score: -1.79 (active)
LINC02910 (long intergenic non-protein coding RNA 2910) [SID315463809] — TNF reporter robust z-score: 0.07
LINC02910 (long intergenic non-protein coding RNA 2910) [SID315463809] — TNF reporter robust z-score: -0.05
LINC02910 (long intergenic non-protein coding RNA 2910) [SID315463809] — TNF reporter robust z-score: -0.51
ARHGAP9 (Rho GTPase activating protein 9) [SID315458896] — TNF reporter robust z-score: -0.69
ARHGAP9 (Rho GTPase activating protein 9) [SID315458896] — TNF reporter robust z-score: -0.65
ARHGAP9 (Rho GTPase activating protein 9) [SID315458896] — TNF reporter robust z-score: -0.72
ARHGAP9 (Rho GTPase activating protein 9) [SID315458896] — TNF reporter robust z-score: 1.12
